Assay results from article PMC12079403.
No constants are given. Whether binding was seen depends on the method and setting. In cells and extracts the contact can be indirect. Some results given as binding are weak or reduced against the parent protein; the word gives no strength. Where a sequence is shown, tags or fusion partners need not be part of it.

T1: ADAR1 (human (endogenous in the paper's human epithelial cell lines; line not named for this experiment)) (UniProt P55265)
T1 sequence: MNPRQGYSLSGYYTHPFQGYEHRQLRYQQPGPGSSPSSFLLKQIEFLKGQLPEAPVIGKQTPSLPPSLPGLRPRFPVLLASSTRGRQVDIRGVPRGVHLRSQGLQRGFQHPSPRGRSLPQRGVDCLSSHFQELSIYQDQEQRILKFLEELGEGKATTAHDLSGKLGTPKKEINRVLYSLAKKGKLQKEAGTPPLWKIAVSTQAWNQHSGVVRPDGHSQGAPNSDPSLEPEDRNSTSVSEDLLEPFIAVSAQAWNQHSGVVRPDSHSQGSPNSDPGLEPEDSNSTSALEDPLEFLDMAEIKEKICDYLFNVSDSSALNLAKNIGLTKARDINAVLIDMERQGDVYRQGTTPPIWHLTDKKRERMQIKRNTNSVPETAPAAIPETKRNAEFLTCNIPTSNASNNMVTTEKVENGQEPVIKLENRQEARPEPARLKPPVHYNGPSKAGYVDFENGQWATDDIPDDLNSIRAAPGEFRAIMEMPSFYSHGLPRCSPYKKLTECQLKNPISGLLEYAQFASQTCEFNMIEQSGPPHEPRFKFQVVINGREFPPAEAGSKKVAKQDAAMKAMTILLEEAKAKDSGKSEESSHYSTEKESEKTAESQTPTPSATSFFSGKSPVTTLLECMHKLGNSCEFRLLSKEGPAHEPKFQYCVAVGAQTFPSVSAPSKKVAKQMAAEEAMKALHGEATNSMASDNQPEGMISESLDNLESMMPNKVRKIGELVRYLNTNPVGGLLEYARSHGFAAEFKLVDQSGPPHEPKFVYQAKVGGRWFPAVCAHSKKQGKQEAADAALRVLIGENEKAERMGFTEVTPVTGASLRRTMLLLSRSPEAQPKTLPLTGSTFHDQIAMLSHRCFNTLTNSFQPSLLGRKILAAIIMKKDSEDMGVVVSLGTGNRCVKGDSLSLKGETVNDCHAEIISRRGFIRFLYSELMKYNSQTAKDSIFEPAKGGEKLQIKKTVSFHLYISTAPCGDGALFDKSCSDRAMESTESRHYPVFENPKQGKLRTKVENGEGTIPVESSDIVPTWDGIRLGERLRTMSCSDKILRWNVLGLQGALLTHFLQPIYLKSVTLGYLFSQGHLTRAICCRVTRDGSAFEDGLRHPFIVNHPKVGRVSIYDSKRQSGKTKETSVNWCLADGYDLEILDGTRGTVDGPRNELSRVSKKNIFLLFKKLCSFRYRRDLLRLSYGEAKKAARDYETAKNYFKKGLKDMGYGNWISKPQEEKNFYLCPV

T2: HNRNPL (human (endogenous in the paper's human epithelial cell lines; line not named for this experiment)) (UniProt P14866)
T2 sequence: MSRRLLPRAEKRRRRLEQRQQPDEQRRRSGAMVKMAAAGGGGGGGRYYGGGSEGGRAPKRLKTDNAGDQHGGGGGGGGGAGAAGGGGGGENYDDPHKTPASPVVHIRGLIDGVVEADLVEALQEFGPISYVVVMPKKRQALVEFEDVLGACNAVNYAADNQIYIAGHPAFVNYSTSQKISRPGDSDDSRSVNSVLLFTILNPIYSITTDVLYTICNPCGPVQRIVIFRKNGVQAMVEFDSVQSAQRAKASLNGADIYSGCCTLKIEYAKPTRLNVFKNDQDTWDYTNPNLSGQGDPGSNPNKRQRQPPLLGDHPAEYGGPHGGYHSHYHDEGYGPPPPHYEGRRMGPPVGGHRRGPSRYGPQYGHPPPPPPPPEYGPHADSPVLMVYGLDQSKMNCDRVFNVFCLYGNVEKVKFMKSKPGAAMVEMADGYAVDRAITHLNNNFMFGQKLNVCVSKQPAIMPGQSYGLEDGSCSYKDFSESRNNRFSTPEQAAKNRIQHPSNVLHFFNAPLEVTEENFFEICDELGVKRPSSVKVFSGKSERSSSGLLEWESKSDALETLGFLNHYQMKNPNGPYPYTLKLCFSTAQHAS


Tests used:
[1] = biological target: T1, ADAR1 (human (endogenous in the paper's human epithelial cell lines; line not named for this experiment)); assay: co-IP; cells with or without 2% CSE lysed in RIPA buffer; lysates incubated with anti-ADAR1 or anti-HNRNPL or normal IgG at 4 °C overnight, protein A + G beads 2 h, western blotting
[2] = biological target: T2, HNRNPL (human (endogenous in the paper's human epithelial cell lines; line not named for this experiment)); assay: as above

Row | binding [1] | binding [2] | Binder
1 | binds | – | HNRNPL (protein, UniProt P14866 1-589) MSRRLLPRAEKRRRRLEQRQQPDEQRRRSGAMVKMAAAGGGGGGGRYYGGGSEGGRAPKRLKTDNAGDQHGGGGGGGGGAGAAGGGGGGENYDDPHKTPASPVVHIRGLIDGVVEADLVEALQEFGPISYVVVMPKKRQALVEFEDVLGACNAVNYAADNQIYIAGHPAFVNYSTSQKISRPGDSDDSRSVNSVLLFTILNPIYSITTDVLYTICNPCGPVQRIVIFRKNGVQAMVEFDSVQSAQRAKASLNGADIYSGCCTLKIEYAKPTRLNVFKNDQDTWDYTNPNLSGQGDPGSNPNKRQRQPPLLGDHPAEYGGPHGGYHSHYHDEGYGPPPPHYEGRRMGPPVGGHRRGPSRYGPQYGHPPPPPPPPEYGPHADSPVLMVYGLDQSKMNCDRVFNVFCLYGNVEKVKFMKSKPGAAMVEMADGYAVDRAITHLNNNFMFGQKLNVCVSKQPAIMPGQSYGLEDGSCSYKDFSESRNNRFSTPEQAAKNRIQHPSNVLHFFNAPLEVTEENFFEICDELGVKRPSSVKVFSGKSERSSSGLLEWESKSDALETLGFLNHYQMKNPNGPYPYTLKLCFSTAQHAS
2 | – | binds | ADAR1 (protein, UniProt P55265 1-1226) MNPRQGYSLSGYYTHPFQGYEHRQLRYQQPGPGSSPSSFLLKQIEFLKGQLPEAPVIGKQTPSLPPSLPGLRPRFPVLLASSTRGRQVDIRGVPRGVHLRSQGLQRGFQHPSPRGRSLPQRGVDCLSSHFQELSIYQDQEQRILKFLEELGEGKATTAHDLSGKLGTPKKEINRVLYSLAKKGKLQKEAGTPPLWKIAVSTQAWNQHSGVVRPDGHSQGAPNSDPSLEPEDRNSTSVSEDLLEPFIAVSAQAWNQHSGVVRPDSHSQGSPNSDPGLEPEDSNSTSALEDPLEFLDMAEIKEKICDYLFNVSDSSALNLAKNIGLTKARDINAVLIDMERQGDVYRQGTTPPIWHLTDKKRERMQIKRNTNSVPETAPAAIPETKRNAEFLTCNIPTSNASNNMVTTEKVENGQEPVIKLENRQEARPEPARLKPPVHYNGPSKAGYVDFENGQWATDDIPDDLNSIRAAPGEFRAIMEMPSFYSHGLPRCSPYKKLTECQLKNPISGLLEYAQFASQTCEFNMIEQSGPPHEPRFKFQVVINGREFPPAEAGSKKVAKQDAAMKAMTILLEEAKAKDSGKSEESSHYSTEKESEKTAESQTPTPSATSFFSGKSPVTTLLECMHKLGNSCEFRLLSKEGPAHEPKFQYCVAVGAQTFPSVSAPSKKVAKQMAAEEAMKALHGEATNSMASDNQPEGMISESLDNLESMMPNKVRKIGELVRYLNTNPVGGLLEYARSHGFAAEFKLVDQSGPPHEPKFVYQAKVGGRWFPAVCAHSKKQGKQEAADAALRVLIGENEKAERMGFTEVTPVTGASLRRTMLLLSRSPEAQPKTLPLTGSTFHDQIAMLSHRCFNTLTNSFQPSLLGRKILAAIIMKKDSEDMGVVVSLGTGNRCVKGDSLSLKGETVNDCHAEIISRRGFIRFLYSELMKYNSQTAKDSIFEPAKGGEKLQIKKTVSFHLYISTAPCGDGALFDKSCSDRAMESTESRHYPVFENPKQGKLRTKVENGEGTIPVESSDIVPTWDGIRLGERLRTMSCSDKILRWNVLGLQGALLTHFLQPIYLKSVTLGYLFSQGHLTRAICCRVTRDGSAFEDGLRHPFIVNHPKVGRVSIYDSKRQSGKTKETSVNWCLADGYDLEILDGTRGTVDGPRNELSRVSKKNIFLLFKKLCSFRYRRDLLRLSYGEAKKAARDYETAKNYFKKGLKDMGYGNWISKPQEEKNFYLCPV
